Source: PubChem BioAssay AID652243 (Drosophila RNAi Screening Center, 2013)
Aim: 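Fly genes required for human androgen receptor driven transcription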 (primary screen). Cells: Drosophila S2R+ cells. Knock-down reagent: long dsRNA against Drosophila genes. Time to read-out: 72 h (48 h, then 24 h hormone). Challenge: synthetic androgen R1881 at 10 nM for 24 h. Detection: 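Per-well raw luminescence of the androgen-driven firefly reporter and of the Renilla control, two replicates each, without normalisation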. Scale: firefly reporter light: higher = more light from androgen-responsive reporter; Renilla control light: higher = more constitutive control signal (cell number, transfection). Rule for the call: 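Hit when the log firefly-to-Renilla ratio dropped or increased by a fixed fold versus the mean of GFP or LacZ controls across duplicate plates; lowering cut given as 1.5 and as 3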. Calls: active = hit: reporter lowered or raised; inactive = no hit.
The deposit covers about 24,000 reagents; below is a random part of those that have a named target and a result. Of all reagents, 246 (1%) were called active. 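Plates not normalised; calls are printed but the firefly/Renilla ratio behind them is not deposited; fold cut for lowering reported inconsistently.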 Raw values are not corrected between plates. A plus sign joins genes that one reagent is predicted to hit. Not given: the amount of reagent.

| Target gene | PubChem SID | firefly reporter light, replicate 1 | firefly reporter light, replicate 2 | Renilla control light, replicate 1 | Renilla control light, replicate 2 | Outcome |
| --- | --- | --- | --- | --- | --- | --- |
| CG7646 | SID104191024 | 2.80e5 | 2.54e5 | 2.30e6 | 3.17e6 | inactive |
| fand | SID104186759 | 9.63e5 | 1.01e6 | 2.02e6 | 2.74e6 | inactive |
| fand | SID104206049 | 1.89e5 | 2.11e5 | 3.78e5 | 8.94e5 | inactive |
| fand | SID104216602 | 6.81e5 | 7.41e5 | 1.64e6 | 1.61e6 | inactive |
| CG3213 | SID104180368 | 4.39e5 | 5.54e5 | 8.36e5 | 1.07e6 | inactive |
| CG3213 | SID104203652 | 6.80e5 | 5.73e5 | 6.98e5 | 6.43e5 | inactive |
| CG3251 | SID104180378 | 64801 | 1.08e5 | 4.07e5 | 9.60e5 | inactive |
| CG5644 | SID104190323 | 2.03e5 | 1.69e5 | 1.65e6 | 1.06e6 | inactive |
| Marf | SID104198121 | 41969 | 63873 | 4.49e5 | 4.32e5 | inactive |
| Marf | SID104206645 | 4.43e5 | 3.75e5 | 1.97e6 | 1.38e6 | inactive |
| CR15821 | SID104188273 | 65750 | 1.20e5 | 9.09e5 | 9.48e5 | inactive |
| CR15821 | SID104203277 | 7.54e5 | 4.13e5 | 4.50e5 | 4.61e5 | inactive |
| CG8172 | SID104186881 | 3.17e5 | 2.69e5 | 2.18e6 | 2.22e6 | inactive |
| CG8172 | SID104201674 | 6.17e5 | 5.59e5 | 1.91e6 | 1.55e6 | inactive |
| CG8172 | SID104204148 | 7.81e5 | 8.85e5 | 6.43e5 | 1.05e6 | inactive |
| Brf | SID104193958 | 2.46e5 | 2.62e5 | 3.04e6 | 3.10e6 | inactive |
| Brf | SID104193959 | 1.41e5 | 1.51e5 | 1.94e6 | 1.88e6 | inactive |
| aux | SID104191953 | 60912 | 63613 | 4.42e5 | 4.40e5 | inactive |
| aux | SID104206722 | 4.71e5 | 6.02e5 | 1.11e6 | 1.03e6 | inactive |
| aux | SID104214647 | – | – | – | – | inactive |
| TwdlU | SID104192016 | 1.03e5 | 82115 | 2.13e6 | 2.21e6 | inactive |
| TwdlU | SID104207607 | 7.09e5 | 6.87e5 | 1.52e6 | 1.36e6 | inactive |
| PLCXD | SID104182219 | 4.59e5 | 5.78e5 | 2.21e6 | 2.56e6 | inactive |
| Nmdmc | SID104196552 | 39541 | 72707 | 4.53e5 | 5.01e5 | inactive |
| Nmdmc | SID104204756 | 2.96e5 | 3.17e5 | 6.90e5 | 6.05e5 | inactive |
| CG30050 | SID104185134 | 1.04e5 | 1.58e5 | 3.83e5 | 4.07e5 | inactive |
| SPH93 | SID104182770 | 1.37e5 | 1.38e5 | 1.95e6 | 2.14e6 | inactive |
| CheA75a | SID104190599 | 1.12e5 | 30507 | 1.21e6 | 3.56e5 | inactive |
| CG31294 | SID104201751 | 5.31e5 | 5.96e5 | 2.47e6 | 1.84e6 | inactive |
| CG31294 | SID104205409 | 2.79e5 | 2.91e5 | 5.21e5 | 5.44e5 | inactive |
| Erk7 | SID104197919 | 3.41e5 | 2.73e5 | 3.39e6 | 3.39e6 | inactive |
| Erk7 | SID104198019 | 3.62e5 | 5.56e5 | 2.30e6 | 2.57e6 | inactive |
| Erk7 | SID104201522 | 1.11e6 | 1.02e6 | 1.57e6 | 1.40e6 | inactive |
| CG33981 + fab1 | SID104187204 | 3.82e5 | 3.56e5 | 5.97e5 | 5.19e5 | inactive |
| CG33981 + fab1 | SID104206589 | 5.10e5 | 3.37e5 | 2.11e6 | 1.42e6 | inactive |
| CG33981 + fab1 | SID104214373 | – | – | – | – | inactive |
| CG33981 + fab1 | SID104214374 | – | – | – | – | inactive |
| CG1360 | SID104186198 | 2.64e5 | 2.38e5 | 1.17e6 | 1.56e6 | inactive |
| CG1360 | SID104207950 | 6.43e5 | 6.04e5 | 1.22e6 | 1.22e6 | inactive |
| CR40441 | SID104202274 | 3.97e5 | 8.61e5 | 7.41e5 | 1.43e6 | inactive |
| RpS10b | SID104199353 | 2.29e5 | 2.04e5 | 1.47e6 | 1.65e6 | inactive |
| NiPp1 | SID104187099 | 5.35e5 | 4.79e5 | 5.24e5 | 3.90e5 | inactive |
| NiPp1 | SID104214353 | – | – | – | – | inactive |
| CG13110 | SID104182000 | 3.09e5 | 4.84e5 | 1.99e6 | 3.12e6 | inactive |
| CG11927 | SID104180129 | 7.93e5 | 1.07e6 | 1.49e6 | 1.68e6 | inactive |
| angel | SID104184462 | 7.39e5 | 5.68e5 | 8.80e5 | 8.25e5 | inactive |
| angel | SID104201109 | 8.51e5 | 9.10e5 | 1.51e6 | 1.11e6 | inactive |
| CG13796 | SID104203339 | 9.29e5 | 1.17e6 | 9.80e5 | 9.78e5 | inactive |
| CG9281 | SID104199971 | 1.26e5 | 99212 | 8.72e5 | 7.34e5 | inactive |
| CG9281 | SID104203248 | 9.64e5 | 9.40e5 | 9.85e5 | 9.84e5 | inactive |
| Gip | SID104198459 | 4.25e5 | 5.75e5 | 2.26e6 | 3.13e6 | inactive |
| beat-VII | SID104193572 | 1.64e5 | 2.21e5 | 5.86e5 | 4.30e5 | inactive |
| beat-VII | SID104194535 | 1.67e5 | 1.42e5 | 2.18e6 | 2.24e6 | inactive |
| beat-VII | SID104202184 | 5.65e5 | 9.93e5 | 9.55e5 | 1.59e6 | inactive |
| CG7054 | SID104195977 | 33264 | 33376 | 4.90e5 | 6.05e5 | inactive |
| CG7054 | SID104205203 | 1.77e5 | 2.68e5 | 7.65e5 | 7.52e5 | inactive |
| superdeath | SID104194660 | 4.18e5 | 4.20e5 | 2.34e6 | 2.69e6 | inactive |
| superdeath | SID104203050 | 6.26e5 | 1.10e6 | 1.35e6 | 8.11e5 | inactive |
| Nf-YB | SID104181849 | 1.94e5 | 1.74e5 | 2.00e6 | 1.48e6 | inactive |
| APP-BP1 | SID104190712 | 3.29e5 | 1.96e5 | 3.63e6 | 3.28e6 | inactive |
| Abl | SID104189453 | 2.35e5 | 2.49e5 | 2.57e6 | 1.87e6 | active |
| Abl | SID104202663 | 5.97e5 | 6.70e5 | 2.90e5 | 3.30e5 | active |
| Abl | SID104214164 | – | – | – | – | inactive |
| Abl | SID104214165 | – | – | – | – | inactive |
| CG30278 | SID104202146 | 7.81e5 | 1.03e6 | 1.71e6 | 2.48e6 | inactive |
| RpL28 + snoRNA:Me28S-C3351 | SID104204726 | 3.77e5 | 3.81e5 | 4.81e5 | 2.82e5 | inactive |
| faf | SID104196734 | 1.92e5 | 1.28e5 | 2.86e6 | 2.87e6 | inactive |
| CG6695 | SID104195890 | 87312 | 76399 | 6.09e5 | 6.18e5 | inactive |
| CG6695 | SID104203304 | 1.36e6 | 1.41e6 | 1.40e6 | 1.40e6 | inactive |
| didum | SID104187395 | 3.21e5 | 2.81e5 | 1.82e6 | 1.46e6 | inactive |
| Ugt303B3 | SID104193991 | 1.52e5 | 1.79e5 | 3.08e6 | 2.95e6 | inactive |
| Ugt303B3 | SID104204930 | 2.88e5 | 3.69e5 | 1.15e6 | 1.03e6 | inactive |
| Ugt303B3 | SID104216648 | 1.10e6 | 8.68e5 | 1.78e6 | 1.79e6 | inactive |
| betaTub65B | SID104191185 | 1.32e5 | 3.02e5 | 1.94e6 | 4.16e6 | inactive |
